Our source for the signal change (36 h minus 0 h), SMN2 luciferase ratio and SMN1 luciferase ratio values is PubChem BioAssay.

The list shows a part of the results. Further columns of the screen follow, without active or inactive calls. For some assays here: The list favours compounds with an active or inconclusive main result. Peptide text beside a SMILES is read from it. * marks the point of attachment. For = O=C*

One test in a line: PubChem AID 1586. The following applies: yeast two-hybrid polyglutamine protein interaction, reporter readout; measured here: averaged growth delta OD.
The compound `OC(Cn1cncn1)(Cn1cncn1)c1ccc(F)cc1F` registered a signal change (36 h minus 0 h) of 0.282.
Consider `CC1(C)S[C@@H]2[C@H](NC(=O)COc3ccccc3)C(=O)N2[C@H]1C(=O)O`, for which the signal change (36 h minus 0 h) was 0.0875.
Compound `NS(=O)(=O)c1cc(C2(O)NC(=O)c3ccccc32)ccc1Cl` (stereo not given) yielded a signal change (36 h minus 0 h) of 0.0898.
On the same count and under the same terms, to `Cc1cccc(C)c1OCC(C)N` (stereo not given) belongs 0.0693; to `CCO/C([O-])=N/c1c[n+](N2CCOCC2)no1`, -0.0594.
As for `CC(C)(S)C(N)C(=O)O` (stereo not given), the signal change (36 h minus 0 h) amounted to 0.0756.
Regarding `CC(=O)Nc1ccc(O)cc1`, the signal change (36 h minus 0 h) was determined as 0.0316.
With `CN1C2CC[C@H]1CC(OC(=O)C(O)c1ccccc1)C2` (stereo not given in full), the signal change (36 h minus 0 h) stood at 0.0326.
On the same count and under the same terms, to `NC12CC3CC(CC(C3)C1)C2` belongs 0.0749; to `CC(=O)Oc1c(C)c(C)c2c(c1C)CCC(C)(CCCC(C)CCCC(C)CCCC(C)C)O2` (stereo not given), 0.0984.
Regarding `CC(=O)NC1SCCC1=O` (stereo not given), the signal change (36 h minus 0 h) came to 0.149.
On to `COc1ccc2cc([C@H](C)C(=O)O)ccc2c1`, for which the signal change (36 h minus 0 h) came to 0.0922.
`CC[C@H]1CN2CCc3cc(OC)c(OC)cc3C2C[C@@H]1CC1NCCc2cc(OC)c(OC)cc21` (stereo not given in full) registered a signal change (36 h minus 0 h) of 0.19.
Regarding `O=C1C(O)=C(O)C(=O)C(O)=C1O`, the signal change (36 h minus 0 h) amounted to 0.117.
Regarding `CC1(C)C2CC[C@]3(C)C(C(=O)C=C4[C@H]5C[C@@](C)(C(=O)O)CC[C@]5(C)CC[C@]43C)[C@@]2(C)CC[C@@H]1O` (stereo not given in full), the signal change (36 h minus 0 h) amounted to 0.0327.
Compound `CC[C@H](C)C(=O)O[C@H]1CCC=C2C=C[C@H](C)C(CCC3C[C@@H](O)CC(=O)O3)[C@H]21` (stereo not given in full) came in with a signal change (36 h minus 0 h) of -0.112.
`COC1=CC(C)[C@@H]2C[C@H]3OC(=O)C[C@H]4C(C)=C(OC)C(=O)C([C@@]34C)[C@@]2(C)C1=O` (stereo not given in full) gave a signal change (36 h minus 0 h) of 0.236.
`CC(C)NCC(O)COc1cccc2[nH]ccc12` (stereo not given) registered a signal change (36 h minus 0 h) of 0.121.
Take `Cc1c(N(C)CS(=O)(=O)O)c(=O)n(-c2ccccc2)n1C`: the signal change (36 h minus 0 h) amounted to 0.0775.
In turn, `CCCOc1ccc2nc(NC(=O)OC)[nH]c2c1` gave a signal change (36 h minus 0 h) of 0.149.
The same measure, in the same setting: to `CCN(CCCCOC(=O)c1ccc(OC)c(OC)c1)C(C)Cc1ccc(OC)cc1` (stereo not given) belongs 0.165; to `CCn1cc(C(=O)O)c(=O)c2cc3c(cc21)OCO3`, 0.107; to `NC(=O)c1ccc[n+]([C@@H]2O[C@H](COP(=O)([O-])OP(=O)(O)OC[C@H]3O[C@@H](n4cnc5c(N)ncnc54)[C@H](OP(=O)(O)O)[C@@H]3O)[C@@H](O)[C@H]2O)c1`, 0.154.
`O[N+]1=CC=CCC1=S.On1ccccc1=S.[Zn]` yielded a signal change (36 h minus 0 h) of -0.00665.
`Cc1cc(C(C)(C)C)c(O)c(C)c1CC1=NCCN1`: the signal change (36 h minus 0 h) is 0.118.
As to `CO[C@@]1(NC(=O)Cc2cccs2)C(=O)N2C(C(=O)O)=C(COC(N)=O)CS[C@@H]21`, the signal change (36 h minus 0 h) came out at 0.203.
The same measure, in the same setting: in the case of `NS(=O)(=O)c1cc2c(cc1C(F)(F)F)NC(Cc1ccccc1)NS2(=O)=O` (stereo not given) it was 0.104.
For the compound `CN(C)c1nc(N(C)C)nc(N(C)C)n1`, the signal change (36 h minus 0 h) came out at 0.105.
Compound `Nc1ccc(S(=O)(=O)NC(=O)c2ccccc2)cc1` gave a signal change (36 h minus 0 h) of 0.108.
Take `N[C@H](Cc1ccccc1)C(=O)O`: the signal change (36 h minus 0 h) amounted to 0.111.
In turn, `CCn1cc(C(=O)O)c(=O)c2cc(F)c(N3CCNC(C)C3)c(F)c21` (stereo not given) displayed a signal change (36 h minus 0 h) of 0.201.
As to `CCC(=O)O[C@H]1[C@H](O[C@@H]2[C@@H](C)[C@H](O[C@H]3C[C@@](C)(OC)[C@@H](O)[C@H](C)O3)[C@@H](C)C(=O)O[C@H](CC)[C@@](C)(O)[C@H](O)[C@@H](C)C(=O)[C@H](C)C[C@@]2(C)O)O[C@H](C)C[C@@H]1N(C)C`, the signal change (36 h minus 0 h) was 0.13.
As for `CN[C@@H]1[C@H](O)[C@H](NC)[C@H]2O[C@@]3(O)C(=O)C[C@@H](C)O[C@H]3O[C@@H]2[C@H]1O`, the signal change (36 h minus 0 h) was 0.2.
The compound `CNCCCC12CCC(c3ccccc31)c1ccccc12` came in with a signal change (36 h minus 0 h) of 0.067.
`NC(N)=NCCCCN=C(N)N` returned a signal change (36 h minus 0 h) of 0.118.
Compound `CC(C(=O)O)c1ccc(N2Cc3ccccc3C2=O)cc1` (stereo not given) displayed a signal change (36 h minus 0 h) of 0.185.
In turn, `O=c1cc(CO)occ1O` registered a signal change (36 h minus 0 h) of 0.0917.
On to `CSCCC(NC=O)C(=O)NC(Cc1ccccc1)C(=O)O` (stereo not drawn) (For-Met-Phe-OH; configuration not given here), for which the signal change (36 h minus 0 h) came out at 0.221.
Regarding `NCCCCC(N)C(=O)NCC(=O)NC(Cc1cnc[nH]1)C(=O)NC(CCCCN)C(=O)O` (stereo not given) (H-KGHK-OH; configuration not given here), the signal change (36 h minus 0 h) was determined as 0.39.
In turn, `C[C@H](CCC(=O)O)[C@H]1CCC2C3C(CC[C@@]21C)[C@@]1(C)CC[C@@H](O)C[C@H]1C[C@H]3O` (stereo not given in full) came in with a signal change (36 h minus 0 h) of 0.0328.

The nature of another test: enhancers of SMN2 over SMN1 splicing, cell-based, SMN2/SMN1 luciferase reporters (AID 1598). The following applies: SMN2 vs SMN1 luciferase splicing reporter cells, at 10 µM; SMN1 luciferase ratio: measured here: SMN1 luciferase reporter average; SMN2 luciferase ratio: measured here: SMN2 luciferase reporter average, stronger effect = higher value. Background: In a reporter assay the amount or activity of a reporter protein is the signal.
On to `OC(Cn1cncn1)(Cn1cncn1)c1ccc(F)cc1F`, for which the SMN2 luciferase ratio was 0.96 and the SMN1 luciferase ratio came out at 0.96.
On to `CC1(C)S[C@@H]2[C@H](NC(=O)COc3ccccc3)C(=O)N2[C@H]1C(=O)O`, for which the SMN1 luciferase ratio was determined as 0.78 and the SMN2 luciferase ratio came out at 0.82.
The corresponding values for `NS(=O)(=O)c1cc(C2(O)NC(=O)c3ccccc32)ccc1Cl` (stereo not given) are 0.91 and 0.93.
For the compound `Cc1cccc(C)c1OCC(C)N` (stereo not given), the SMN2 luciferase ratio worked out at 0.87 and the SMN1 luciferase ratio was 0.94.
For the compound `CCO/C([O-])=N/c1c[n+](N2CCOCC2)no1`, the SMN2 luciferase ratio is 0.89 and the SMN1 luciferase ratio is 1.02.
For `CC(C)(S)C(N)C(=O)O` (stereo not given) the same measures were 0.75 and 0.9.
For the compound `CC(=O)Nc1ccc(O)cc1`, the SMN1 luciferase ratio was 0.99 and the SMN2 luciferase ratio turned out to be 0.99.
`CC(=O)Oc1c(C)c(C)c2c(c1C)CCC(C)(CCCC(C)CCCC(C)CCCC(C)C)O2` (stereo not given): the SMN2 luciferase ratio was determined as 0.91 and the SMN1 luciferase ratio amounted to 0.87.
With `CC(=O)NC1SCCC1=O` (stereo not given), the SMN2 luciferase ratio is 0.87 and the SMN1 luciferase ratio amounted to 0.89.
For `COc1ccc2cc([C@H](C)C(=O)O)ccc2c1`, the SMN1 luciferase ratio turned out to be 0.96 and the SMN2 luciferase ratio was 0.87.
As for `CC[C@H]1CN2CCc3cc(OC)c(OC)cc3C2C[C@@H]1CC1NCCc2cc(OC)c(OC)cc21` (stereo not given in full), the SMN1 luciferase ratio turned out to be 0.29 and the SMN2 luciferase ratio came to 0.63.
Regarding `O=C1C(O)=C(O)C(=O)C(O)=C1O`, the SMN2 luciferase ratio was found to be 0.98 and the SMN1 luciferase ratio is 0.91.
With `CC1(C)C2CC[C@]3(C)C(C(=O)C=C4[C@H]5C[C@@](C)(C(=O)O)CC[C@]5(C)CC[C@]43C)[C@@]2(C)CC[C@@H]1O` (stereo not given in full), the SMN1 luciferase ratio stood at 0.97 and the SMN2 luciferase ratio came to 0.98.
For the compound `CC[C@H](C)C(=O)O[C@H]1CCC=C2C=C[C@H](C)C(CCC3C[C@@H](O)CC(=O)O3)[C@H]21` (stereo not given in full), the SMN2 luciferase ratio is 1.06 and the SMN1 luciferase ratio is 1.12.
Regarding `COC1=CC(C)[C@@H]2C[C@H]3OC(=O)C[C@H]4C(C)=C(OC)C(=O)C([C@@]34C)[C@@]2(C)C1=O` (stereo not given in full), the SMN2 luciferase ratio came out at 0.96 and the SMN1 luciferase ratio was found to be 0.84.
In the case of `CC(C)NCC(O)COc1cccc2[nH]ccc12` (stereo not given), the SMN2 luciferase ratio was found to be 0.88 and the SMN1 luciferase ratio stood at 0.9.
Regarding `Cc1c(N(C)CS(=O)(=O)O)c(=O)n(-c2ccccc2)n1C`, the SMN2 luciferase ratio was 0.84 and the SMN1 luciferase ratio worked out at 0.9.
For `CCCOc1ccc2nc(NC(=O)OC)[nH]c2c1` the same measures were 1.1 and 1.43.
For the compound `CCN(CCCCOC(=O)c1ccc(OC)c(OC)c1)C(C)Cc1ccc(OC)cc1` (stereo not given), the SMN2 luciferase ratio was found to be 0.82 and the SMN1 luciferase ratio is 0.83.
As to `CCn1cc(C(=O)O)c(=O)c2cc3c(cc21)OCO3`, the SMN2 luciferase ratio was found to be 0.89 and the SMN1 luciferase ratio was 0.86.
As to `NC(=O)c1ccc[n+]([C@@H]2O[C@H](COP(=O)([O-])OP(=O)(O)OC[C@H]3O[C@@H](n4cnc5c(N)ncnc54)[C@H](OP(=O)(O)O)[C@@H]3O)[C@@H](O)[C@H]2O)c1`, the SMN1 luciferase ratio turned out to be 0.9 and the SMN2 luciferase ratio stood at 0.92.
On to `Cc1cc(C(C)(C)C)c(O)c(C)c1CC1=NCCN1`, for which the SMN1 luciferase ratio was 0.88 and the SMN2 luciferase ratio was 0.99.
With `NS(=O)(=O)c1cc2c(cc1C(F)(F)F)NC(Cc1ccccc1)NS2(=O)=O` (stereo not given), the SMN1 luciferase ratio was found to be 0.91 and the SMN2 luciferase ratio came to 0.94.
In the case of `CN(C)c1nc(N(C)C)nc(N(C)C)n1`, the SMN1 luciferase ratio is 0.87 and the SMN2 luciferase ratio is 0.84.
The corresponding values for `Nc1ccc(S(=O)(=O)NC(=O)c2ccccc2)cc1` are 0.89 and 0.95.
Turning to `N[C@H](Cc1ccccc1)C(=O)O`, the SMN1 luciferase ratio worked out at 1.11 and the SMN2 luciferase ratio amounted to 0.96.
As to `CCn1cc(C(=O)O)c(=O)c2cc(F)c(N3CCNC(C)C3)c(F)c21` (stereo not given), the SMN1 luciferase ratio was determined as 0.91 and the SMN2 luciferase ratio is 0.77.
Take `CCC(=O)O[C@H]1[C@H](O[C@@H]2[C@@H](C)[C@H](O[C@H]3C[C@@](C)(OC)[C@@H](O)[C@H](C)O3)[C@@H](C)C(=O)O[C@H](CC)[C@@](C)(O)[C@H](O)[C@@H](C)C(=O)[C@H](C)C[C@@]2(C)O)O[C@H](C)C[C@@H]1N(C)C`: the SMN1 luciferase ratio amounted to 0.81 and the SMN2 luciferase ratio amounted to 0.98.
`CN[C@@H]1[C@H](O)[C@H](NC)[C@H]2O[C@@]3(O)C(=O)C[C@@H](C)O[C@H]3O[C@@H]2[C@H]1O`: the SMN1 luciferase ratio was 0.88 and the SMN2 luciferase ratio stood at 0.9.
In the case of `CNCCCC12CCC(c3ccccc31)c1ccccc12`, the SMN2 luciferase ratio was found to be 0.95 and the SMN1 luciferase ratio worked out at 0.94.
With `NC(N)=NCCCCN=C(N)N`, the SMN1 luciferase ratio worked out at 0.92 and the SMN2 luciferase ratio amounted to 0.86.
For `O=c1cc(CO)occ1O` the same measures were 1.01 and 0.92.
With `CSCCC(NC=O)C(=O)NC(Cc1ccccc1)C(=O)O` (stereo not drawn) (For-Met-Phe-OH; configuration not given here), the SMN1 luciferase ratio worked out at 0.92 and the SMN2 luciferase ratio was determined as 1.
In the case of `NCCCCC(N)C(=O)NCC(=O)NC(Cc1cnc[nH]1)C(=O)NC(CCCCN)C(=O)O` (stereo not given) (H-KGHK-OH; configuration not given here), the SMN1 luciferase ratio was 0.85 and the SMN2 luciferase ratio was determined as 0.88.
`C[C@H](CCC(=O)O)[C@H]1CCC2C3C(CC[C@@]21C)[C@@]1(C)CC[C@@H](O)C[C@H]1C[C@H]3O` (stereo not given in full): the SMN2 luciferase ratio worked out at 0.91 and the SMN1 luciferase ratio came to 0.97.
